Test results published in PubChem BioAssay AID2417 (National Center for Advancing Translational Sciences (NCATS), 2010).
Hit rate of the full screen: of about 140,000 compounds, about 4,300 (3.1%) were called active. The inconclusive results got no clear call from the source; some entries with a clear call stand among them for comparison.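 How the source made its calls: active means readout at or below -70, meaning at least 70% loss of cells showing the perinucleolar compartment, a nuclear body marking cancer cells; inconclusive means readout between -30 and a set limit; inactive means the rest.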

Assay: High Content Assay for Compounds that inhibit the Assembly of the Perinucleolar Compartment;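 further: plate controls were DMSO wells for no effect and camptothecin positive control wells for full effect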
Details: PC3M PTB-GFP, PNC prevalence imaging, 16 h; at 10 µM; active compounds read low
Method in brief: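 PC3M cells stably expressing PTB-GFP, 750–1000 cells/well, treated 16 h at 37 °C with compound (23 nl of library stock), in duplicate. After paraformaldehyde fixation and Hoechst stain, imaged at 20x; PNC prevalence scored by image analysis.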

SMILES	activity change (PNC), negative = inhibition
CCCCN1C(=O)NC(=O)C2(Cc3c(nc4c(C)cccn4c3=O)N3CCc4ccccc4C32)C1=O (stereo not drawn)	inconclusive: -36.6%
C[N+]12CCC(CC1)C(=C(c1ccccc1)c1ccccc1)C2	inconclusive: -73.8%
C/C(=C/C=C/[C@@H](C)C(=O)O)[C@H]1CN[C@H](C(=O)O)[C@H]1CC(=O)O	inconclusive: -33.8%
COc1ccc(C2SCC(=O)Nc3c2c(C)nn3C2CCOC(C)(C)C2)cc1 (stereo not drawn)	inconclusive: -44%
COc1ccc(NP(=O)(Oc2ccccc2OC)Oc2ccccc2OC)cc1	inconclusive: -62.1%
Cc1cc(O)c(CN2CCN(c3ccccc3)CC2)cc1C	inconclusive: -47.6%
COc1ccc(CCNCc2ccccc2F)cc1OC	inconclusive: -40.5%
COc1ccc(S(=O)(=O)NC(CC(=O)N2CCC3(CC2)OCCO3)C(C)C)cc1 (stereo not drawn)	inconclusive: -67.1%
O=C(Nc1cccc(OC(=O)N2CCCCC2)c1)N1CCCCC1	inconclusive: -41.6%
O=Cc1c(C(=O)O)n(Cc2ccc(Cl)cc2)c2ccccc12	inactive: -15.4%
CCN(CC)c1ccc(CC2C(=O)N(C)C(=O)N(C)C2=O)cc1	inconclusive: -32.2%
O=P1(NCc2ccco2)COc2ccccc2OC1	inactive: -12.7%
C[C@H]1O[C@@H](O[C@H]2[C@@H](O)C[C@H](O[C@H]3[C@@H](O)C[C@H](O[C@H]4CC[C@@]5(C)[C@H](CC[C@@H]6[C@@H]5CC[C@]5(C)[C@@H](C7=CC(=O)OC7)CC[C@]65O)C4)O[C@@H]3C)O[C@@H]2C)C[C@H](O)[C@@H]1O	active: -81.7%
Cc1cccc(OC(=O)N2CCOCC2)c1	inconclusive: -41.4%
CC(C)Cc1nnc(NC(=O)CCC(=O)N2CCN(CCOC(c3ccccc3)c3ccccc3)CC2)s1	inactive: 12.1%
CCN(CC)c1ccc(/C=C2\C(=O)NC(=O)N(CC3CCCO3)C2=O)cc1 (stereo not drawn)	inconclusive: -42.6%
C/C(CCc1c[nH]c2ccccc12)=N\O	inconclusive: -63.5%
COc1ccc(C(C)=O)cc1CC(C(=O)c1ccc(Br)cc1)N(C)C (stereo not drawn)	inconclusive: -38.2%
CCCCOc1nc2ccccc2c(=O)n1-c1ccccc1	inconclusive: -51.3%
Cc1ccc2c(c1)N(CCC(=O)N1CCC3(CC1)OCCO3)C(=O)C(C)O2 (stereo not drawn)	inactive: -13.1%
COCCNC(=O)c1c(N)n(CCC(C)C)c2nc3ccccc3nc12	inconclusive: -66.9%
Cc1cc(Br)ccc1N1C(=O)CC(=O)NC1=O	inactive: -12.5%
CCNC(=O)NC(=O)C(C)OC(=O)c1c(C)nn(Cc2ccccc2)c1Cl (stereo not drawn)	inconclusive: -33.3%

2 compounds picked at random from the list so far:
SMILES	activity change (PNC), negative = inhibition
O=Cc1c(C(=O)O)n(Cc2ccc(Cl)cc2)c2ccccc12	inactive: -15.4%
Cc1cc(Br)ccc1N1C(=O)CC(=O)NC1=O	inactive: -12.5%
